# Measured values published in PubChem BioAssay AID504834 (National Center for Advancing Translational Sciences (NCATS), 2011).
# Out of some 320,000 compounds screened, about 22,000 (6.9%) were called active. The shares of active, inactive and inconclusive entries below differ from those in the screen. Calls follow the shape of the dose curve; as a rule, active = well fitted inhibition curve with a large enough effect; inconclusive = small, poorly fitted or top-dose-only effect, or another doubt; inactive = no such curve, though single readings can be large or run the other way. Potencies of inconclusive entries are doubtful fits and often do not repeat.
# Test: Primary qHTS for delayed death inhibitors of the malarial parasite plastid, 96 hour incubation
# Details: P. falciparum luciferase reporter growth; series mostly up to 28.7 µM
# Outline: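 Compounds incubated with erythrocytes infected by luciferase-expressing P. falciparum (2% hematocrit, 0.05% parasitemia final) for 96 hours, 37 C in 5% CO2. Growth inhibition scored as decreased luciferase luminescence.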
# Potency is read from the fitted curve at half-maximal effect.
row,SMILES,Potency
1,Cc1ccc(-c2cc(C(=O)NC3CCN(Cc4ccccc4)CC3)c3ccccc3n2)cc1,"inconclusive: 2.08 µM [inhibitor, single point]"
2,COc1ccc(NC(=O)c2cc(C)no2)cc1OC,"inconclusive: 10.4 µM [inhibitor, single point]"
3,Cc1cccc(NS(=O)(=O)c2cc(C(=O)OCC(=O)Nc3cc(C)on3)ccc2C)c1,"inconclusive: 0.165 µM [inhibitor, full curve, poor fit]"
4,CCOC(=O)c1c(NC(=O)CSc2nc3ccccc3s2)sc(C(C)=O)c1C,inactive
5,O=C(Nc1ccc(S(=O)(=O)NC2CCCCC2)cc1)c1ccco1,"inconclusive: 10.4 µM [inhibitor, single point]"
6,O=C(CN1CCC(n2nnc3ccccc32)CC1)NCc1cccs1,"inconclusive: 9.28 µM [inhibitor, partial curve]"
7,Cc1cc(C)cc(NC(=O)c2cc(C)nc3ccccc23)c1,active: 11.7 µM
8,C=C(C)C(=O)Nc1cccc(C2=NOC3(C2)C[C@@H](C(N)=O)N(C(=O)CC(c2ccccc2)c2ccccc2)C3)c1 (stereo not given in full),"inconclusive: 18.5 µM [inhibitor, single point]"
9,NNC(=O)c1sc2nc(N3CCOCC3)c3c(c2c1N)CCCC3,"inconclusive: 18.5 µM [inhibitor, single point]"
10,O=C(c1ccc(OC2CCN(CCc3ccccc3)CC2)cc1)N1CCCC1,"inconclusive: 18.5 µM [inhibitor, single point]"
11,COC(=O)c1ccc2c(c1)N(Cc1nc(-c3cccc(C)c3)oc1C)C(=O)C1CCCN21 (stereo not given),"inconclusive: 2.08 µM [inhibitor, single point]"
12,Cc1ccc(O)c(NC(=O)c2cc(-c3ccccc3Cl)on2)c1,"inconclusive: 4.15 µM [inhibitor, single point]"
13,CN(C(=O)C1CCOC1)c1nnc(-c2ccncc2)s1 (stereo not given),"inconclusive: 18.5 µM [inhibitor, single point]"
14,CCCn1c(NC(=O)c2ccc(Br)cc2)nc2ccccc21,active: 2.94 µM
15,CC1CCN(c2ccc(C(=O)NCc3cccs3)cn2)CC1,"inconclusive: 0.828 µM [inhibitor, full curve, poor fit]"
16,CC1=NN(C(=O)COc2ccc(C)c(C)c2)C(O)(c2ccc(Cl)cc2)C1 (stereo not given),inactive
17,Cc1cc2nc(SCCOC(=O)Nc3ccccc3)nc(C)c2cc1C,inactive
18,C=CCOc1ccc(CNc2ccc3[nH]c(=O)[nH]c3c2)cc1OCC,"inconclusive: 18.5 µM [inhibitor, single point]"
19,CCN(c1ccccc1)S(=O)(=O)c1cccc(C(=O)OCc2nc3sc(C)c(C)c3c(=O)[nH]2)c1,"inconclusive: 10.4 µM [inhibitor, single point]"
20,COc1ccccc1CCNC(=O)c1cc(-c2ccccn2)nc2ccccc12,"inconclusive: 6.57 µM [inhibitor, partial curve]"
21,CC(=O)N1CCN(C(=O)C(Cc2c[nH]c3ccccc23)NC(=O)c2ccccc2Cl)CC1 (stereo not given),inactive
22,Cc1ccc(NC(=O)c2c(-c3c(F)cccc3Cl)noc2C)cc1F,"inconclusive: 18.5 µM [inhibitor, single point]"
23,Nc1nc2ccccc2n1CCOc1ccc(F)cc1,active: 14.7 µM
24,O=C(CCc1nc2ccccc2c(=O)[nH]1)Nc1nnc(SCc2ccccc2F)s1,inactive

row,SMILES,Potency
1,CC1(C)CC(=O)C(C=NCCN2CCN(C(=O)Cc3ccc(F)cc3)CC2)=C(O)C1,inactive
2,Cc1cccc(Cn2nc(C)cc2NC(=O)CCCn2ccc([N+](=O)[O-])n2)c1,inactive
3,CN1C(=O)C(CC(=O)Nc2ccc(F)cc2)N(Cc2ccco2)C1=S (stereo not given),"inconclusive: 10.4 µM [inhibitor, single point]"
4,CC(Cc1ccccc1)NCCC(c1ccccc1)c1ccccc1 (stereo not given),active: 14.7 µM
5,Cc1cc(C)c(S(=O)(=O)NCc2cn3c(C)csc3n2)cc1C,inactive
6,COc1ccc(-n2c(=O)c(CCC(=O)N(C)Cc3cccs3)nc3ccccc32)cc1,"inconclusive: 14.7 µM [inhibitor, partial curve, poor fit]"
7,NS(=O)(=O)c1ccc(CCNC(=O)C(=O)c2c[nH]c3ccccc23)cc1,inactive
8,COCCCNC(=S)N1CCC(C(=O)c2ccc(Cl)cc2)CC1,"inconclusive: 18.5 µM [inhibitor, single point]"
9,CC(=O)c1ccc(OCC(=O)NCC2(N3CCCCC3)CCCCC2)cc1,"inconclusive: 18.5 µM [inhibitor, single point]"
10,O=C(COC(=O)CNS(=O)(=O)c1ccc(Br)cc1Cl)Nc1ccc(N2CCOCC2)cc1,inactive
11,CSc1nc2ncc(-c3ccsc3)c(N)n2n1,inactive
12,COc1ccc(C(CNC(=O)C(CCSC)NC(=O)c2ccccc2Cl)N2CCOCC2)cc1 (stereo not given),inactive
13,Cc1cn2c(N)c(/C=C3\C=Nc4ccccc43)c(=O)nc2s1,"inconclusive: 4.15 µM [inhibitor, single point]"
14,O=c1c2ccccc2c(-c2ccccc2)nn1-c1cc(Cl)cc(Cl)c1,"inconclusive: 2.62 µM [inhibitor, full curve, poor fit]"
15,CCc1ccc(S(=O)(=O)Nc2cc3c(cc2N2CCOCC2)n(C)c(=O)c(=O)n3C)cc1,"inconclusive: 18.5 µM [inhibitor, single point]"
16,COc1cccc(/C=C2\SC(=S)N(CCC(=O)N3CCCCC3)C2=O)c1,"inconclusive: 18.5 µM [inhibitor, single point]"
17,CC(c1ccccc1)N1CC(C(=O)N2CCN(Cc3ccc(C#N)cc3)CC2)CC1=O (stereo not given),inactive
18,O=C(Nc1ccccc1)N(Cc1cccnc1)Cc1ccco1,inactive
19,Cn1cccc1/C=N/N1CCN(Cc2ccccc2Cl)CC1,inactive
20,O=[N+]([O-])c1cc(-c2nnc(Nc3ccccc3)c3ccccc23)ccc1N1CCOCC1,"inconclusive: 7.38 µM [inhibitor, partial curve]"
21,O=C(CSc1nc2ccccc2c(=O)n1-c1ccc(F)cc1)Nc1ccc(N2CCOCC2)cc1,"inconclusive: 3.29 µM [inhibitor, partial curve, poor fit]"
22,O=C(Nc1ccc(OC(F)(F)F)cc1)C1CCCCN1S(=O)(=O)c1ccccc1 (stereo not given),"inconclusive: 16.5 µM [inhibitor, single point]"
23,CC(=O)Nc1ccc(NC(=O)C2CCCN(c3ncccn3)C2)cc1 (stereo not given),inactive
24,Cc1ccccc1-c1cc(C(=O)NCc2ccco2)n(CC2CC(c3cccnc3)=NO2)n1 (stereo not given),"inconclusive: 16.5 µM [inhibitor, partial curve, poor fit]"

row,SMILES,Potency
1,COc1ccc(C2CC(=O)c3sc(N)nc3C2)cc1 (stereo not given),active: 2.62 µM
2,CCC(OC(=O)CC1Sc2ccccc2NC1=O)C(=O)NCC1CCCO1 (stereo not given),inactive
3,O=C(CSc1nc2ccccc2c(=O)n1Cc1ccc(Cl)cc1)NCc1cccs1,"inconclusive: 10.4 µM [inhibitor, single point]"
4,CC(C)(C)n1nnnc1C(c1cccs1)N(Cc1ccccc1)Cc1ccco1 (stereo not given),inactive
5,O=C(NCc1cccs1)c1ccc(S(=O)(=O)N2CCCCC2)cc1,inactive
6,CCOc1ccc(-n2c(SCc3cc(=O)oc4cc(C)ccc34)nnc2-c2cccnc2)cc1,"inconclusive: 18.5 µM [inhibitor, single point]"
7,C=CCN1C(=O)CN=C1NCc1ccccc1,"inconclusive: 13.1 µM [inhibitor, single point]"
8,CCOC(=O)Cc1c(C)nc2c(C#N)c[nH]n2c1=O,inactive
9,CCOC(=O)CSc1nnc(-c2ccccc2)o1,"inconclusive: 4.65 µM [inhibitor, partial curve, poor fit]"
10,CCNC(=S)NNC(=O)c1ccoc1C,"inconclusive: 7.38 µM [inhibitor, partial curve]"
11,Cc1ccc2nc(NC(=O)CSc3nc(=O)n(CCN(C)C)c4c3CCCC4)sc2c1,"inconclusive: 18.5 µM [inhibitor, single point]"
12,O=C(CSc1ncnc2sc(-c3ccccc3)cc12)NC1CCS(=O)(=O)C1 (stereo not given),"inconclusive: 0.131 µM [inhibitor, full curve]"
13,CCCCn1nnc(NC(=O)c2ccc(-c3cccc([N+](=O)[O-])c3)o2)n1,inactive
14,Cc1c(/C=N\NC(=O)c2cc3ccccc3o2)c2ccccc2n1C,"inconclusive: 18.5 µM [inhibitor, single point]"
15,COc1ccc(S(=O)(=O)N2CCC(C(=O)N3CCc4ccccc4C3)CC2)cc1Cl,"inconclusive: 16.5 µM [inhibitor, partial curve, poor fit]"
16,CC(=O)Nc1ccc(S(=O)(=O)N2CCN(c3cc(C)nc4ccccc34)CC2)cc1,"inconclusive: 5.86 µM [inhibitor, partial curve]"
17,CCCn1c(/N=C/c2cc(OC)ccc2O)nc2ccccc21,inactive
18,COc1ccc2c(c1)C(=O)N1[C@H]3c4cc(C)ccc4OC[C@@H]3[C@H](c3ccccc3)[C@]1(C)C(=O)N2,"inconclusive: 11.7 µM [inhibitor, single point]"
19,C=CCN1C(=O)NC(=O)/C(=C/c2ccc(OC)c(COc3ccc(NC(C)=O)cc3)c2)C1=O,inactive
20,COC(=O)[C@@]12CCCN1[C@H](c1ccc(-c3ccc(C(C)=O)cc3)c(OC)c1)[C@H]1C(=O)N(C)C(=O)[C@H]12,"inconclusive: 11.7 µM [inhibitor, single point]"
21,COc1cc(C2=NOC(C(=O)N3CCOCC3)C2)cc(OC)c1OC (stereo not given),"inconclusive: 2.33 µM [inhibitor, partial curve, poor fit]"
22,CC(=O)c1cccc(NC(=S)NCCC2=CCCCC2)c1,inactive

# Part of the list above, with tabs.
row	SMILES	Potency
2	CCC(OC(=O)CC1Sc2ccccc2NC1=O)C(=O)NCC1CCCO1 (stereo not given)	inactive
3	O=C(CSc1nc2ccccc2c(=O)n1Cc1ccc(Cl)cc1)NCc1cccs1	inconclusive: 10.4 µM [inhibitor, single point]
4	CC(C)(C)n1nnnc1C(c1cccs1)N(Cc1ccccc1)Cc1ccco1 (stereo not given)	inactive
5	O=C(NCc1cccs1)c1ccc(S(=O)(=O)N2CCCCC2)cc1	inactive
6	CCOc1ccc(-n2c(SCc3cc(=O)oc4cc(C)ccc34)nnc2-c2cccnc2)cc1	inconclusive: 18.5 µM [inhibitor, single point]
7	C=CCN1C(=O)CN=C1NCc1ccccc1	inconclusive: 13.1 µM [inhibitor, single point]
8	CCOC(=O)Cc1c(C)nc2c(C#N)c[nH]n2c1=O	inactive
9	CCOC(=O)CSc1nnc(-c2ccccc2)o1	inconclusive: 4.65 µM [inhibitor, partial curve, poor fit]
10	CCNC(=S)NNC(=O)c1ccoc1C	inconclusive: 7.38 µM [inhibitor, partial curve]
11	Cc1ccc2nc(NC(=O)CSc3nc(=O)n(CCN(C)C)c4c3CCCC4)sc2c1	inconclusive: 18.5 µM [inhibitor, single point]
12	O=C(CSc1ncnc2sc(-c3ccccc3)cc12)NC1CCS(=O)(=O)C1 (stereo not given)	inconclusive: 0.131 µM [inhibitor, full curve]
13	CCCCn1nnc(NC(=O)c2ccc(-c3cccc([N+](=O)[O-])c3)o2)n1	inactive
14	Cc1c(/C=N\NC(=O)c2cc3ccccc3o2)c2ccccc2n1C	inconclusive: 18.5 µM [inhibitor, single point]
15	COc1ccc(S(=O)(=O)N2CCC(C(=O)N3CCc4ccccc4C3)CC2)cc1Cl	inconclusive: 16.5 µM [inhibitor, partial curve, poor fit]
16	CC(=O)Nc1ccc(S(=O)(=O)N2CCN(c3cc(C)nc4ccccc34)CC2)cc1	inconclusive: 5.86 µM [inhibitor, partial curve]
17	CCCn1c(/N=C/c2cc(OC)ccc2O)nc2ccccc21	inactive
18	COc1ccc2c(c1)C(=O)N1[C@H]3c4cc(C)ccc4OC[C@@H]3[C@H](c3ccccc3)[C@]1(C)C(=O)N2	inconclusive: 11.7 µM [inhibitor, single point]
19	C=CCN1C(=O)NC(=O)/C(=C/c2ccc(OC)c(COc3ccc(NC(C)=O)cc3)c2)C1=O	inactive
